# Source: PubChem BioAssay (NCATS)
# Protein sequences, listed by entry. Tags and fused reporters are not part of them. Lines headed by an entry give the natural chain unless they say otherwise; changes in a name come on top.
# UniProt P10828: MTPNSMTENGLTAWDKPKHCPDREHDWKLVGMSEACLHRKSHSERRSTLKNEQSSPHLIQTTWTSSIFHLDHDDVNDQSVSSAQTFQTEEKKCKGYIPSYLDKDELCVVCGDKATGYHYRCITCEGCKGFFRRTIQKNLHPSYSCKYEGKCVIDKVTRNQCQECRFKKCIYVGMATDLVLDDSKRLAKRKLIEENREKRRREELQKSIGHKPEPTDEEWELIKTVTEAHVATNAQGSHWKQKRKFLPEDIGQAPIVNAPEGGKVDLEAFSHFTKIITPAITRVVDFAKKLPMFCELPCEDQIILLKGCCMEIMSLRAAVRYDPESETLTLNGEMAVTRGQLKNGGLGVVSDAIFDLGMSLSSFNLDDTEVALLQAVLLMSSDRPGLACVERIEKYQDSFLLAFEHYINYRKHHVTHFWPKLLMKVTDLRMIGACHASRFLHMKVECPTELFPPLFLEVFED
# “And” between values parts separate entries of the source, which are not always exact repeats. Equal values may be shown once. The shares of active, inactive and inconclusive entries below differ from those in the screen. Where the call is inconclusive, the potency comes from a doubtful curve fit. A note “side channel” means that the fit belongs to a control or component signal, not to the main read-out. The source made the active and inactive calls. Calls come from the whole dose curve; as a rule, active = well fitted inhibition curve with a large enough effect in the signal ratio, with a control signal flat (not every such curve was filed as active); inconclusive = small, poorly fitted or top-dose-only effect, or effect the other way, or a change in a side signal; inactive = flat fitted curve, though single readings scatter; the % refers to the signal ratio.
# Biological target: Thyroid hormone receptor beta (Homo sapiens) (UniProt P10828)
# Assay: qHTS assay for small molecule antagonists of thyroid hormone receptor beta signaling (AID 588547);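 for activity change % (negative = inhibition): cells stimulated with 0.4 nM T3 agonist during compound exposure; series mostly up to about 77 µM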
# Details: TR-UAS-bla HEK293, beta-lactamase ratio, antagonist mode, 18 h
# Summary of the method: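 Inhibition of T3-driven (0.4nM final) beta-lactamase reporter activity was measured over 0.59 nM to 92 uM compound after 18 h at 37 C. The cells were GripTite HEK293 TR-UAS-bla in charcoal/dextran-stripped serum, with CCF4 ratio read-out and IC50 from Hill fits.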
# % is set by controls: 0 for no effect and ±100 for the full control effect; potency is the fitted concentration of half-maximal effect.
Compound,activity change % (negative = inhibition),Potency
CCC(=O)O[C@H]1CC[C@H]2[C@@H]3CCC4=CC(=O)CC[C@]4(C)[C@H]3CC[C@]12C,inactive: 4.79%,
[O]=[Cr](=[O])([OH])[O][Cr](=[O])(=[O])[OH],inconclusive: -38.8%,"inconclusive: 20 µM [side channel, rising, partial curve, poor fit]"
COP(=S)(OC)Oc1ccc(SC)c(C)c1,,"inconclusive: 63.1 µM [side channel, rising, single point]"
Oc1c(Br)cc(Br)cc1Br,inconclusive: 2.04%,
COc1nn(CSP(=S)(OC)OC)c(=O)s1,inconclusive: -8.42%,
CC[C@H](C)[C@H]1O[C@]2(C=C[C@@H]1C)C[C@@H]1C[C@@H](C/C=C(\C)[C@@H](O[C@H]3C[C@H](OC)[C@@H](O[C@H]4C[C@H](OC)[C@@H](O)[C@H](C)O4)[C@H](C)O3)[C@@H](C)/C=C/C=C3\CO[C@@H]4[C@H](O)C(C)=C[C@@H](C(=O)O1)[C@]34O)O2,,"inconclusive: 14.1 µM [falling, full curve]"
Cc1cc(SCc2sc(-c3ccc(C(F)(F)F)c(F)c3)nc2C)ccc1OCC(=O)O,inconclusive: -53.7%,
COP(=O)(OC)C(O)C(Cl)(Cl)Cl (configuration not stated),inconclusive: -39.4%,
C[C@H]1CC[C@@H]2[C@@H](C)[C@H]3[C@H](C[C@H]4[C@@H]5CC=C6CC(O[C@@H]7O[C@H](CO)[C@H](O)[C@H](O[C@@H]8O[C@H](CO)[C@@H](O)[C@H](O)[C@H]8O)[C@H]7O[C@H]7O[C@@H](C)[C@H](O)[C@@H](O)[C@H]7O)CC[C@]6(C)[C@H]5CC[C@]34C)N2C1 (some centres not stated),,"inconclusive: 50.1 µM [cytotoxic, side channel]"
CO/C=C(/C(=O)OC)c1ccccc1Oc1cc(Oc2ccccc2C#N)ncn1,,"inconclusive: 0.0126 µM [side channel, falling, full curve, poor fit]"
Nc1ccc(Cl)cc1N,inactive: -20.8%,"inconclusive: 0.0251 µM [cytotoxic, side channel, full curve, poor fit]"
CN1C[C@H](C(=O)N[C@]2(C)O[C@@]3(O)[C@@H]4CCCN4C(=O)[C@H](Cc4ccccc4)N3C2=O)C=C2c3cccc4[nH]cc(c34)C[C@H]21,,"inconclusive: 11.2 µM [side channel, falling, partial curve, poor fit]"
ClC1=C(Cl)[C@]2(Cl)[C@@H]3[C@@H]4C[C@@H]([C@H]5O[C@@H]45)[C@@H]3[C@@]1(Cl)C2(Cl)Cl,inactive: -14.5%,
CC[n+]1c(-c2ccccc2)c2cc(N)ccc2c2ccc(N)cc21,,"inconclusive: 28.2 µM [inhibitor, full curve, poor fit]"
C=C(C)[C@H]1Cc2c(ccc3c2O[C@@H]2COc4cc(OC)c(OC)cc4[C@@H]2C3=O)O1,,"inconclusive: 12.6 µM [inhibitor, full curve, poor fit]"
C[C@]12C/C(=C/O)C(=O)C[C@@H]1CC[C@@H]1[C@@H]2CC[C@@]2(C)[C@H]1CC[C@]2(C)O,,"inconclusive: 39.8 µM [side channel, rising, partial curve, poor fit]"
Oc1cc(Cl)ccc1Oc1ccc(Cl)cc1Cl,,"inconclusive: 44.7 µM [inhibitor, single point]"
CC(C)Nc1ccc(Nc2ccccc2)cc1,,"inconclusive: 79.4 µM [side channel, rising, partial curve, poor fit]"
CCCCCCCCCCCC[N+](C)(C)CCOc1ccccc1,inconclusive: -55.7% [cytotoxic],
CCCC(C)(COC(N)=O)COC(=O)NC(C)C (configuration not stated),inactive: 4.32% and inactive: -7.39%,
CCCCOC(=O)c1ccccc1C(=O)OCc1ccccc1,,"inconclusive: 0.0071 µM [cytotoxic, side channel, full curve, poor fit]"
Cc1ccc(N=CN(C)C=Nc2ccc(C)cc2C)c(C)c1,inconclusive: -25.7%,
CC(C)(C)C(O)C(Oc1ccc(Cl)cc1)n1cncn1 (configuration not stated),inactive: -8.05%,
O=C(Nc1ccccc1-c1ccc(Cl)cc1)c1cccnc1Cl,inconclusive: -4.21%,
CCOP(=S)(OCC)Oc1ccc2c(C)c(Cl)c(=O)oc2c1,,"inconclusive: 35.5 µM [side channel, rising, single point]"

# For reference, part of the list above:
Compound,activity change % (negative = inhibition),Potency
COc1nn(CSP(=S)(OC)OC)c(=O)s1,inconclusive: -8.42%,
CC[C@H](C)[C@H]1O[C@]2(C=C[C@@H]1C)C[C@@H]1C[C@@H](C/C=C(\C)[C@@H](O[C@H]3C[C@H](OC)[C@@H](O[C@H]4C[C@H](OC)[C@@H](O)[C@H](C)O4)[C@H](C)O3)[C@@H](C)/C=C/C=C3\CO[C@@H]4[C@H](O)C(C)=C[C@@H](C(=O)O1)[C@]34O)O2,,"inconclusive: 14.1 µM [falling, full curve]"
